This note sets out measurements from the supplement of paper PMC10060354, “Discovery of a small molecule ligand of FRS2 that inhibits invasion and tumor growth” (Cellular Oncology, 2022).

Sequences of proteins named here, by UniProt entry; tags and fusion partners are left off. A change or cut given only in a name is not applied to a line headed by its entry.
UniProt P31327: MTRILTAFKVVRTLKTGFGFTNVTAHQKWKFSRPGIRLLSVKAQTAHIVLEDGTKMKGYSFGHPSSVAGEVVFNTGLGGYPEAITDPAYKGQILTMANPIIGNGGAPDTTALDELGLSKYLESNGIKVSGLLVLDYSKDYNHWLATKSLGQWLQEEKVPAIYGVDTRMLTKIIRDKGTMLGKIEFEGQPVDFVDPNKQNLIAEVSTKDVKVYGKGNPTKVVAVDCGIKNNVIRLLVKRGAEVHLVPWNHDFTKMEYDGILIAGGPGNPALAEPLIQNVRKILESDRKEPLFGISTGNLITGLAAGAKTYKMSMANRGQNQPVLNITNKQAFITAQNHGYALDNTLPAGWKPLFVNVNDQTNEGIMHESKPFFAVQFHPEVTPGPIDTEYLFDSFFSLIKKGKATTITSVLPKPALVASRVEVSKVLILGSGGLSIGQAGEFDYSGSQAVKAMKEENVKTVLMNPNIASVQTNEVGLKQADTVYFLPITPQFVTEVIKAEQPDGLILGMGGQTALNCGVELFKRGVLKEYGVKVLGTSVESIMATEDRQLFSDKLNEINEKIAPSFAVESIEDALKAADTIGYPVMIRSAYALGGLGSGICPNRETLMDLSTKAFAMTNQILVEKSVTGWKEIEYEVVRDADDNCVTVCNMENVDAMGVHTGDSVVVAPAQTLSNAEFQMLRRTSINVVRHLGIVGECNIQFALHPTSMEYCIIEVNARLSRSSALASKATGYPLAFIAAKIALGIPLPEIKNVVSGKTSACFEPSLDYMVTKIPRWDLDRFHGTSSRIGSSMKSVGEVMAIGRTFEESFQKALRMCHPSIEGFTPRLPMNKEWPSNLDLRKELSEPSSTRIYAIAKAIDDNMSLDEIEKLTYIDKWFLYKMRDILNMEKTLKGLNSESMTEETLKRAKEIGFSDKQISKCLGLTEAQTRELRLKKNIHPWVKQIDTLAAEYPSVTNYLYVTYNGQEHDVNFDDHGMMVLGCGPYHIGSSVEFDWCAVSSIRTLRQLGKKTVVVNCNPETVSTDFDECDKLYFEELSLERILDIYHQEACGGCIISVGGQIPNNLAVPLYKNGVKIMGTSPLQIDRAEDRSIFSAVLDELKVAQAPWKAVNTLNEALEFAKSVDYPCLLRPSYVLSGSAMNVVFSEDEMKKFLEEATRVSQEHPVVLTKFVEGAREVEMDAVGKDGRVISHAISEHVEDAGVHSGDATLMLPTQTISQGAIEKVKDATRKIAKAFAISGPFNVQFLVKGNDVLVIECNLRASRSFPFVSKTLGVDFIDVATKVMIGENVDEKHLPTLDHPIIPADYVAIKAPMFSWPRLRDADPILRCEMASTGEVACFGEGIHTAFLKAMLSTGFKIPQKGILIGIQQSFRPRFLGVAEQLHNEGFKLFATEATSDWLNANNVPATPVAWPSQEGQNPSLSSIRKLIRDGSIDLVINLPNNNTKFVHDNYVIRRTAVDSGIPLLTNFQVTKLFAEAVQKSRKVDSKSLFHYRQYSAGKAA
UniProt Q6ZT12: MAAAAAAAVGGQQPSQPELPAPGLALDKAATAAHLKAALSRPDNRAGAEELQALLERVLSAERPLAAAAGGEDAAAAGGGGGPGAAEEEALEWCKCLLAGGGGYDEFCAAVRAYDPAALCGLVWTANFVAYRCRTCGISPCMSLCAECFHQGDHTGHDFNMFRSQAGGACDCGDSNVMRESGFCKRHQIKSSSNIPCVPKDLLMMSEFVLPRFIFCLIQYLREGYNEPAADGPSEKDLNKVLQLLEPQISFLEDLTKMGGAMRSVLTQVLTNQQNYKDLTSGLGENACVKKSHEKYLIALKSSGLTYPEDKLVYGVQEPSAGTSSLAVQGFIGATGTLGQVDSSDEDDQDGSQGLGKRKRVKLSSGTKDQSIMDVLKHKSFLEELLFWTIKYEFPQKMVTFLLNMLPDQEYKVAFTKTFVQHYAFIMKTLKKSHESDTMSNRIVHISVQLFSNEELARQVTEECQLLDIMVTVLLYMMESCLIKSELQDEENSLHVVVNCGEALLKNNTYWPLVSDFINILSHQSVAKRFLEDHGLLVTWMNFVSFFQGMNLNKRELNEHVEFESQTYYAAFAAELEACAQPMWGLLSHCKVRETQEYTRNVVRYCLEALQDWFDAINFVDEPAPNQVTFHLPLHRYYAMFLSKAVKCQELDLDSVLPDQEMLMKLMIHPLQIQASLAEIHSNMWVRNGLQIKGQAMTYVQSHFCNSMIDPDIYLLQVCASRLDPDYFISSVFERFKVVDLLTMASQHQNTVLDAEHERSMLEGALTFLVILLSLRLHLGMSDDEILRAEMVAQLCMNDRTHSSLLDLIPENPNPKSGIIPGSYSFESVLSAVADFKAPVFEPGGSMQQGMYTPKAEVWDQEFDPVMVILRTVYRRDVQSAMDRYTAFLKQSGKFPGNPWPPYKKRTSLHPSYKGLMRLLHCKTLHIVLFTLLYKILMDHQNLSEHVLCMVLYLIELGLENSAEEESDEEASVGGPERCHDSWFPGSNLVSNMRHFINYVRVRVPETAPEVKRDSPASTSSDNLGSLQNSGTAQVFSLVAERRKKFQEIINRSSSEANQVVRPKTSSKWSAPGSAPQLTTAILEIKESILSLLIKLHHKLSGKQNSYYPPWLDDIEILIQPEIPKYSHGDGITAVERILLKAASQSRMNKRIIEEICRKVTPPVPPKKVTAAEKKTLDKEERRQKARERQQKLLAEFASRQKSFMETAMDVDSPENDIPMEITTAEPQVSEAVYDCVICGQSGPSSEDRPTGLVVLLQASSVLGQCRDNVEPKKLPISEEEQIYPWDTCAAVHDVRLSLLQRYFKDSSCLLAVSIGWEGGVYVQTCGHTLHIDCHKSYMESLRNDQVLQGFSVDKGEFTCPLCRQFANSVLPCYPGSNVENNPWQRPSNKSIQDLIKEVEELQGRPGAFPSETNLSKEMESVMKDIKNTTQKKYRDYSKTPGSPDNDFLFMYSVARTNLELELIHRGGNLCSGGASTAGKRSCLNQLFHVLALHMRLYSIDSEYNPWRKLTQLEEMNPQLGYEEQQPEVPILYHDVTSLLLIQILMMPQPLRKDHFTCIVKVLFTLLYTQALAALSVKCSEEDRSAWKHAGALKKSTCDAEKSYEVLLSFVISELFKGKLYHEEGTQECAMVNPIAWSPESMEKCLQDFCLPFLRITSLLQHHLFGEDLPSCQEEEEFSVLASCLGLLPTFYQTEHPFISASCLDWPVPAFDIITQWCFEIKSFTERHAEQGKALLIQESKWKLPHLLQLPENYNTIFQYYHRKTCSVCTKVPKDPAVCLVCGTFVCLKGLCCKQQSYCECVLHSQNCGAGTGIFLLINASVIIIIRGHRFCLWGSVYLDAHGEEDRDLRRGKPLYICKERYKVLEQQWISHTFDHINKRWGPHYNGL
UniProt Q8IYB8: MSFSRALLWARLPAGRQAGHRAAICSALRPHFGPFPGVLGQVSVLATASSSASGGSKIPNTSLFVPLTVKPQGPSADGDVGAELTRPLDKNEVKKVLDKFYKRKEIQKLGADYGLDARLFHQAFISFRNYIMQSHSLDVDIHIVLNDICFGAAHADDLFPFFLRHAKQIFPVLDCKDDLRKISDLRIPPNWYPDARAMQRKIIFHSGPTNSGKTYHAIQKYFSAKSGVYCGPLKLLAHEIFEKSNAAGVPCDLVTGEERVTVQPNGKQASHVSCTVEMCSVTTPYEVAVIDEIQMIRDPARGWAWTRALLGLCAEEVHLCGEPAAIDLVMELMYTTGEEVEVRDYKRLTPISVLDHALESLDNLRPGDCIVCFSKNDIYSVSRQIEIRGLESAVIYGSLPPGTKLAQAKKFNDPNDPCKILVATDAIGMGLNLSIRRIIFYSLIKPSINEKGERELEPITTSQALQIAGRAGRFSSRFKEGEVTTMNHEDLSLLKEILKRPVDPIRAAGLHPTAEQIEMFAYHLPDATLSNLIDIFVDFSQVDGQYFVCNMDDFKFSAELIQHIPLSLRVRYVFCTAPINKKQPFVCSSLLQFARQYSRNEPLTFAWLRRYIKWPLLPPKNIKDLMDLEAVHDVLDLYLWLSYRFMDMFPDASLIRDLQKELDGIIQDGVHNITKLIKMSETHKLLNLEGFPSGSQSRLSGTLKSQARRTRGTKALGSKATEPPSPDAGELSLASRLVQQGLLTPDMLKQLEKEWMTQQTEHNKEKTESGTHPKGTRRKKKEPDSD
UniProt P35626: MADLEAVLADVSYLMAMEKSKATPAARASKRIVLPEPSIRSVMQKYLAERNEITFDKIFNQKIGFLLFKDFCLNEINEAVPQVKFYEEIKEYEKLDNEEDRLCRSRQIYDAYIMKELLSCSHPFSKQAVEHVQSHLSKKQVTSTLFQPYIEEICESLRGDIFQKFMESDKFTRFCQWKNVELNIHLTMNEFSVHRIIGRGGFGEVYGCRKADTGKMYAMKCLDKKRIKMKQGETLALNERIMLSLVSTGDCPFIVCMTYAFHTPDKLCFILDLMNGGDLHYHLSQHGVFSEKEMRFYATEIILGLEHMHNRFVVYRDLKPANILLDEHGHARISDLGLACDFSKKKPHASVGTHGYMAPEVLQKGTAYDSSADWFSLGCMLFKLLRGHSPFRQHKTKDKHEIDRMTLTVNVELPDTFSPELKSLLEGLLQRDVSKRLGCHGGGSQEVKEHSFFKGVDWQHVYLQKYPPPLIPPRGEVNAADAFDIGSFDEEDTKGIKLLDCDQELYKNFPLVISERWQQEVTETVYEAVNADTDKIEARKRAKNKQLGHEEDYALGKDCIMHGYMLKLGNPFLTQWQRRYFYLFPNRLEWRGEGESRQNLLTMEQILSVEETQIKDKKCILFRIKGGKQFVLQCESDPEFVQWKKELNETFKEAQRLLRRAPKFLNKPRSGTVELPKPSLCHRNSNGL
UniProt Q15526: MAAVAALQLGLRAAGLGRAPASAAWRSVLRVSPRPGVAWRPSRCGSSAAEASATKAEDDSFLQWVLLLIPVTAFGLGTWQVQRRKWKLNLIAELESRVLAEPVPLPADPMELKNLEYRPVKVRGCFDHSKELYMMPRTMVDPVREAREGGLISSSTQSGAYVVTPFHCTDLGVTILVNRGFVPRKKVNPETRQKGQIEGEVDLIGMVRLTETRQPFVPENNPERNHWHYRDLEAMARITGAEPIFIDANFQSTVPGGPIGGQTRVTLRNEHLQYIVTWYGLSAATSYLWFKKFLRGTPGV
UniProt Q53FT3: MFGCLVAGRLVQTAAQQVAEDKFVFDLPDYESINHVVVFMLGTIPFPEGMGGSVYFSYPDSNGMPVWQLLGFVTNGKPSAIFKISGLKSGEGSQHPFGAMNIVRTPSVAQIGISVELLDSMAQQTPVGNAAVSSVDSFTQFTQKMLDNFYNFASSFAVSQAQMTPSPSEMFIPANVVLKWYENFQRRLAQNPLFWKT
UniProt O14521: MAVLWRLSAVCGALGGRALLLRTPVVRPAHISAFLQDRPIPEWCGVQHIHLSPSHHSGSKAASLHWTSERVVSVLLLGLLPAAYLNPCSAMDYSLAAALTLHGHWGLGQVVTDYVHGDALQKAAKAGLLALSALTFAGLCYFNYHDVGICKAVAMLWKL
UniProt Q14254: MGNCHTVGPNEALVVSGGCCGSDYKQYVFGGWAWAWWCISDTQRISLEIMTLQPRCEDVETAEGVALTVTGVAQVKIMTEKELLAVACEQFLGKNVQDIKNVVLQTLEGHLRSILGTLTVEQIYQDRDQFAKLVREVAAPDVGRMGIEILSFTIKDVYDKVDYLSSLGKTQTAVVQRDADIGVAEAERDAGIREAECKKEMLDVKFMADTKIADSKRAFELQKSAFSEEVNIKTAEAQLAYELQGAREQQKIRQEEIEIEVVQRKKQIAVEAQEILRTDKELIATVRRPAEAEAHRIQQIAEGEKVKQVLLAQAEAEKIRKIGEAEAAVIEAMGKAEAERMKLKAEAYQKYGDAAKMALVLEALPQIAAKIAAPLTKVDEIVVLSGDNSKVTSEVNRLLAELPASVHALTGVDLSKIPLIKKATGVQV
UniProt Q96FX7: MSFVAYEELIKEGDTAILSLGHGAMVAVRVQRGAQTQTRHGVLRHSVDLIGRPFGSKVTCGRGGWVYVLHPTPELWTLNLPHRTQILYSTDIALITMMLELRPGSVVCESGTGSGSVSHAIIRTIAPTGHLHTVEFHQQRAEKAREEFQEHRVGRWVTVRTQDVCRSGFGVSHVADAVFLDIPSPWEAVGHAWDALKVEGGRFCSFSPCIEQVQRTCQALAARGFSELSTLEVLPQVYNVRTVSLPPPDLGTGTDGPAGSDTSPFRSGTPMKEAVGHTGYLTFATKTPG
UniProt P32322: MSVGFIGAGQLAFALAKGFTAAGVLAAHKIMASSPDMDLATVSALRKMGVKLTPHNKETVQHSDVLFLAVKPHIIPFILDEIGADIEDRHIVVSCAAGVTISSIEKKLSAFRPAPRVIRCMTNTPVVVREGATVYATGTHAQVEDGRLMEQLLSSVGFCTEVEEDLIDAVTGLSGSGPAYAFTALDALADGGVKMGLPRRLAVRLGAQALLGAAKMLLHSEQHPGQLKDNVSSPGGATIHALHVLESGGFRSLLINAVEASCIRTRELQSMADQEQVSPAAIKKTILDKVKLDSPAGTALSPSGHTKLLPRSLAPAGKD

Compound in the assay: [O-][N+](C(C1=C(C(O)=C2)NC(C(C=C3)=CC=C3Cl)C4C1C=CC4)=C2Cl)=O
In words: melting temperature shift (compound 7 minus DMSO); higher = compound stabilises the protein. Conditions: 10 µM. The procedure:
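Thermal proteome profiling (TMT mass spectrometry) in intact DAOY medulloblastoma cells or DAOY lysates treated with 10 µM compound 7 or DMSO, heated at 10 temperatures from 40.5 to 73.8 °C for 3 min. Melting curves were fitted with the Bioconductor TPP package, and the melting point difference between compound and vehicle is reported per protein (single curve per condition).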

The mark [1] stands for this setting: system: DAOY cell lysate, treatment time: 20 min, 4 °C.
Where [2] appears, read: system: intact DAOY cells, treatment time: 90 min, 37 °C.

Repeats are few or missing, and single values can be far off.

In the case of SH3BGRL (UniProt O75368), the melting temperature shift is -2.6 °C under setting [1] and -1.44 °C under setting [2]. As to TMEM192 (UniProt Q8IY95), under setting [1], the melting temperature shift is -0.425 °C. For the target CPS1 (UniProt P31327), the melting temperature shift by setting is: under setting [1], -3.07 °C; under setting [2], -1.89 °C. UniProt Q9H0N5: the melting temperature shift under setting [1] is 2.34 °C.

For the target TLE4 (UniProt Q04727), the melting temperature shift was -0.0238 °C under setting [1] and -1.97 °C under setting [2]. For ARHGAP35 (UniProt Q9NRY4) the same measures were -0.753 °C and 0.543 °C. For TFB2M (UniProt Q9H5Q4) the same measures were -0.0255 °C and -0.778 °C. Turning to MMAB (UniProt Q96EY8), under setting [1], the melting temperature shift was found to be 0.005 °C.

PPFIA1 (UniProt Q13136): the melting temperature shift by setting is: under setting [1], -1.15 °C; under setting [2], -0.968 °C. Consider UniProt P56559, for which the melting temperature shift under setting [2] was -1.3 °C.

As for DST (UniProt Q03001), the melting temperature shift is -0.68 °C under setting [1] and 0.242 °C under setting [2].

UBR3 (UniProt Q6ZT12): the melting temperature shift was -1.07 °C under setting [1] and 0.934 °C under setting [2]. For SUPV3L1 (UniProt Q8IYB8) the same measures were -0.888 °C and -0.691 °C. For TROVE2 (UniProt P10155), the melting temperature shift runs as follows: under setting [1], 1.07 °C; under setting [2], -2.55 °C. For MYO1C (UniProt O00159) the same measures were 0.126 °C and -1.09 °C. For TLE3 (UniProt Q04726) the same measures were -0.157 °C and 0.312 °C. Consider UniProt Q9C0A1, for which the melting temperature shift under setting [2] was -1.46 °C. Turning to RAD18 (UniProt Q9NS91), the melting temperature shift reads like this: under setting [1], 0.00457 °C; under setting [2], 0.872 °C. For UniProt P63218 the same measures were 1.19 °C and 2.1 °C. For ORC5 (UniProt O43913) the same measures were -1.72 °C and -1.12 °C.

Regarding UniProt P35626, under setting [2], the melting temperature shift was -1.32 °C. As to UniProt Q8TAE6, the melting temperature shift was -4.55 °C under setting [1] and 0.554 °C under setting [2].

Turning to SURF1 (UniProt Q15526), the melting temperature shift is 0.663 °C under setting [1] and -0.427 °C under setting [2]. For C11ORF73 (UniProt Q53FT3) the same measures were -1.22 °C and -0.274 °C. Consider ABCE1 (UniProt P61221), for which the melting temperature shift under setting [1] is -0.56 °C and the melting temperature shift under setting [2] was -0.609 °C. For TUBG1 (UniProt P23258) the same measures were -0.0811 °C and 0.406 °C. On to UniProt P51911, for which the melting temperature shift was -0.353 °C under setting [1] and -0.464 °C under setting [2].

In the case of N4BP1 (UniProt O75113), the melting temperature shift under setting [1] is -3.42 °C. Still for that read-out and setting: to TCF25 (UniProt Q9BQ70) belongs -0.297 °C; to UniProt P13726, -1.95 °C.

Take UniProt O14521: the melting temperature shift under setting [1] was found to be 1.76 °C. With NFXL1 (UniProt Q6ZNB6), the melting temperature shift is -0.585 °C under setting [1] and 0.287 °C under setting [2]. For PDLIM1 (UniProt O00151), the melting temperature shift under setting [1] is -4.7 °C.

As for UniProt Q9NQA3, the melting temperature shift under setting [2] was 0.634 °C.

FLOT2 (UniProt Q14254): the melting temperature shift by setting is: under setting [1], 1.23 °C; under setting [2], 2.3 °C. For TRMT61A (UniProt Q96FX7) the same measures were 0.244 °C and -0.903 °C. For PYCR1 (UniProt P32322), in that order: -0.293 °C and 1.7 °C.
